Results are given in words; binding and its absence hold for the method and conditions named. Binding seen in cells or lysates may run through a third protein. Here binding means that the protein was enriched with, or labelled near, the bait; the list need not be complete.

Chains of the proteins cited; added tags and fusions are not shown. Lines headed by an entry give the natural chain unless they say otherwise; changes in a name come on top.
UniProt Q5JE61: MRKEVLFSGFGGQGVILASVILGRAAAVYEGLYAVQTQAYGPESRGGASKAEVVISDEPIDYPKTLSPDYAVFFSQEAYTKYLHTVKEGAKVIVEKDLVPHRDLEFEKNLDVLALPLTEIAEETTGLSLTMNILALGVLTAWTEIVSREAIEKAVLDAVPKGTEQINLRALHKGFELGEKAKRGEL

B1: 2-Oxoacid:ferredoxin oxidoreductase, α2 subunit (protein, UniProt Q5JE85 1-396)
chain: MIIRGDEPEQIRLIKKLYKPGNYFMQGNEAVAYGAIFAGCRFYAGYPITPSSEIAETMARELPKLGGYYLQMEDEIGSIAAMVGASWTGLKVMTATAGPGFSLMQENLGYAVMTETPLVLVDVQRSGPSTGQATKGAQGDFFQARWGTHGDHPIIALSPTSGQDAFWEIIRAFNIAERLRTPVVMLFDGVLAHTRELVKIPDVEEVEITYRKLPQNEEEARLPFGDPHGDGVPPMPLFGHGYFTHVTGSTHKENGLRDVYTPEVHDRLVRRLHRKIEQNRHVYEKYEEYFTDDAEILVVSWGVTARPALGAVLKAREEGIKAGLFVPKTVHPFPGERMRALGKKVRAVLVPEMNLGQMILEVQRYVNDDVLLKGVNKIGGVPLTVNEILREIRGVA
B2: OGORβ1 (TK1124) (protein, UniProt Q5JE60 1-281)
chain: MYLKSAYEIREKYLRKDMLPTIFCPGCGIGSVLQFTLRAIDDLGLNQDEIVWVSGIGCSSRVPGFVNFDGLHTTHGRALAFATGIKLTNPDLKIIAFMGDGDAAAIGGNHLIHAIRRNLDVTVILINNFTYGMTGGQVAPTALKGLKGTTAPYGQFENPFDIAQLAVSAGANYVARWTVFNYLQGINSIKKALQKEGFTLVEFLSPCPISFGRRNRMKTAPELIRWYQKITVPLAKAKKMSPEELEGKIVIGEFADRDRPGLVREYREYIKRAKKMMGWEE
B3: OGORδ (TK1131) (protein, UniProt Q5JE84 1-90)
chain: MADVETKTTVEKEGYLVIGKAEGIVEIDIDTFLCKGCGICVEMCPRKVFEWSKELSEKGVHYPVPVNAEKCVKCKLCELLCPDFAIAVRW
B4: predicted ATPase, AAA superfamily, containing PIN and KH nucleic acid-binding domains (TK0953) (protein, UniProt Q5JI99 1-602)
chain: MRVLVPDTSVIVDGRLTQFLSTLGEKVKVVVPEAVVAEIEHQANEGKAIGHVGLEELKKLREMADRGEILLEFYGERPDLWQIRRAKAGEIDNMVREVAQTLSATLVTGDQVQRDIAIAKGIDVIYLTTKKEVRHRLEDFFDDTTMSVHLKAGIRPLAKKGRPGEWRLVPVRDEPLTDVELEEIADDIVERAKRDPESFIELDEPGATVVQLRNYRIVIAKPPFSDRIEITAVRPITKLSIEDYELSERLLERLRDKAAGILIAGAPGEGKTTFAQALAEWYASMGKIVKTMEKPRDLQVSEEITQYTALKGSMELTGDILLLVRPDYTIFDEMRKTSDFKIYSDLRLAGVGMIGVVHATKPIDAIQRFIGRVELGMIPQIVDTVIFIKAGRVAKVLTLEYLVKVPSGMKEEDLARPVIEVRDFETGELEYEIYTYGEEVSVVPVKKEEKAPALRLAEKRLKQEIKKFLPDVNAEVEIVSPHKAVIYADEFDIPAIIGKKGKRITELEKRIGISIDVKSFAEREELKPKERIPVEVEEKKKTIVLRVSPEYAKKPLKFYGGEQYVFTATPSRKGLVKVSKSTPIGKELKRLLDAGIPIWAST
B5: glycerol-1-phosphate dehydrogenase [NAD(P)+] (TK0789) (protein, UniProt Q5JH91 1-351)
chain: MERRIHLMQLPREVLLGENLTGEVVSVAKRIGLTGKALVIYGPKTKEIAGRDVEDAIKSAYEVSSLTIRKGATMEEVERTIEKIKDEGIGWVIAVGGGSIIDVAKLSSFKTGVPFISFPTTASHDGIASANASIKDLGSKTSVKAVPPVAVIADVKVIKTAPYRYLAAGVGDTISNLTAVRDWQLAHRIKGEYYSEYAASLSLMSAKMVMRNADIIRLGNEESVRKVIKALISTGVAMSIAGSSRPASGAEHLFSHALDMLLDKPALHGEQTGLGTIIMAYLHGMKWERVRETLKRVGAPTNAYELGIDPEVIIEALTIAHTIRPERYTILGKDGLTREAAEKAAKITGVI
B6: tRNA (1-methyladenosine) methyltransferase (TK1328) (protein, UniProt Q5JGS7 1-253)
chain: MISVGDRVLLVDPRGKRYLVKVEDKEFHTDLGILNLGELIGKPYGAKIQSHRGETFTALKPDINDIIAKMRRGPQIVHPKDAGIIIAYAGISPGDTVIEAGAGSGALTIFLANAVGPTGKVISYEVRKDFYEIAKKNVELAGFSDRVVLKNKSIYDGIDEKEADHIVLDLPQPENVLPHAVDVLRPGGYFVAYTPCMNQVHRFFRALEEFKGEFMRPRVVEVLVREQEVKRECMRPKTTMLAHTGYITFLRKL
B7: uncharacterized protein (TK0930) (protein, UniProt Q5JI89 1-276)
chain: MRLIVRGKHIRDSLAAELRKEGIKFEVRERLGYDGFIGYMLTGTLDEIEKAVESIEGVDRDALREGFMSFKESVTHILEHLKVGEDAEKLLMEGAWVGDILDQLHRAGVLDYDGKTVKLREGVDPSSIRFEFKFPFNIVHNPEEAEKVAKQFVFTDLLPEYEFEFLELDIARINKIGSIAGRYFPEDVLLKAYFALISRGILAEEILRVLKDGKIPEEELIKSFMRAAPMAIPTPKGTLVINYSKEAIEETLKLLKKLGYIEIKGGKVRKIREMGE
B8: membrane-bound hydrogenase, [4Fe-4S] cluster-binding subunit, MBH-N (protein, UniProt Q5JIL1 1-143)
chain: MKAPILVPVVLRNLFKKPATNRFPQTEPVPIPEDFRGMIAYNVDKCVGCRMCVNVCPAGVFVYLPEIRKVALWTARCVYCGQCVDVCPTGALQLSKDFLLASYDNHDDRFIPLKPEKVEEIKRKLEEQKKAKEAAKKEKEGKA
B9: enolase (TK2106) (protein, UniProt Q5JEV6 1-430)
chain: MENPFEITNVIAREILDSRGNPTVEVEVYTPISMGRAAVPSGASTGTHEALELRDGGSRYHGKGVRRAVENVNKIIAPEIIGMDVTWQRDIDTLMLELDGTENKSNLGANAILGVSLAVAKAAANALGLPLYQYIGGTNAYVMPVPMSNVINGGVHAGNELDFQEFMIMPVGADSFREAIRWVSETYHVLKKVIMEKYGRNAVNVGDEGGFAPPMKEVTEPLDVLIKAIEEAGYKPGDEIAFALDAASSEFFDGEKGKYVVAGKEYDKGELLELYRELVTTYPIVSIEDPFHEEDWEGFVMITKELGSKVQIVGDDLFVTNPKRIRKGIEMGAANALLLKVNQIGTLSEAIDAAYTSFRAGYGVVVSHRSGETEDATIADLAVALNAGQIKTGAPARSDRNAKYNQLIRIEEELEGIAVYPGKKFRNPFL
B10: Indolepyruvate-Fd oxidoreductase, β subunit (protein, UniProt O07836 1-202)
chain: MKEYNIVITGVGGQGILTAANLLGWAALRAGYKVRVGEVHGMSQRFGSVIAYVRFGEDVYGAMVPEGKADVILSFEPVEALRYINYLKKGGLVFTNARPIPPVQVSMGLATYPTLDEMKKIVEEDFGGKFMAFDAEKLAMEAGNIVTTNVVLIGALSQTPGFPLSEEQIKEVIRISVPPKTIDVNMRAFELGVKAAKEMLGL

The first experiment concerns the target 2-Oxoacid:ferredoxin oxidoreductase, γ1 subunit (Thermococcus kodakarensis) (UniProt Q5JE61). In words: affinity purification with mass spectrometry; HA- and His6-tagged bait made from its native locus, captured from clarified T. kodakarensis lysate on a Ni2+-charged chelating column (buffer A: 10 mM Tris HCl pH 8.0, 500 mM NaCl, 10% glycerol), eluted with an imidazole gradient; pooled fractions identified by MuDPIT LC-MS/MS and compared with the parental strain TS559 (P < 0.05, log2 fold change ≥ 2); cells grown at 85°C with (+S˚) or without (–S˚) elemental sulfur.
B1: the binding entry is listed as “binds”.
B2: the binding entry is on record as “binds”.
Still for that read-out and setting: the entry for B3 is “binds”.

A further experiment deals with T1, Membrane-bound sulfane reductase, NiFe-hydrogenase large subunit 2, MBS-L (Thermococcus kodakarensis) (UniProt Q5JGG2).
T1 sequence: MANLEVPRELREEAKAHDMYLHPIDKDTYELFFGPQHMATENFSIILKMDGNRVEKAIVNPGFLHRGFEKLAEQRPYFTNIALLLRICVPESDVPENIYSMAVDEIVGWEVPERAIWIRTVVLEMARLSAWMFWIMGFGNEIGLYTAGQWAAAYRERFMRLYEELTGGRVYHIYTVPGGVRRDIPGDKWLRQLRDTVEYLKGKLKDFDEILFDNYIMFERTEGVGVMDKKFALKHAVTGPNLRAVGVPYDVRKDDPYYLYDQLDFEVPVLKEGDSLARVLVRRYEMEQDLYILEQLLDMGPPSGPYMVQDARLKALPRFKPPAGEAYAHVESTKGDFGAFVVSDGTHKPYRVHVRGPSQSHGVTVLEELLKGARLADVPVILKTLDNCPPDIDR
Described as above.
In the case of B4, the binding result was “binds”.
Same read-out and setting: the entry for B5 is “binds”; for B6 it is “binds”.
With B7, the binding result is “binds”.
As for B8, the binding entry was “binds”.
Take B9: the binding result is listed as “binds”.

In a further experiment the target is T2, Indolepyruvate-Fd oxidoreductase, α subunit (Thermococcus kodakarensis) (UniProt O07835).
T2 sequence: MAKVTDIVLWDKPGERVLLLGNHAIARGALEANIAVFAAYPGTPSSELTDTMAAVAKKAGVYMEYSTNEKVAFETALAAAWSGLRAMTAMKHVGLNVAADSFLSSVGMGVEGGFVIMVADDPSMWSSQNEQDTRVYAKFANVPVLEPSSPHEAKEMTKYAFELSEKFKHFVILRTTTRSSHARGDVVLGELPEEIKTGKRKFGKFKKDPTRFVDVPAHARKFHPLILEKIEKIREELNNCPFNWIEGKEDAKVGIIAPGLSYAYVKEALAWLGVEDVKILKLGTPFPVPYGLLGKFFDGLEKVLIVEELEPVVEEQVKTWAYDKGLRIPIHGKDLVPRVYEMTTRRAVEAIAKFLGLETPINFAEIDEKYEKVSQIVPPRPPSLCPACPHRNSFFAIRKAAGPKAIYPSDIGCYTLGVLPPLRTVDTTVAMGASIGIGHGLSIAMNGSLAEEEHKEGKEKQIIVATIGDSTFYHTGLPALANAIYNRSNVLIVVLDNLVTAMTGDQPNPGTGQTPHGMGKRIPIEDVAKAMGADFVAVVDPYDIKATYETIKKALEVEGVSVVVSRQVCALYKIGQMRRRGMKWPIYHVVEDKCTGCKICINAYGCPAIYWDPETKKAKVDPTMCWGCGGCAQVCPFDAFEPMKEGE
The description is as above.
For the molecule B10, the binding entry is “binds”.

These data come from article PMC12016516.
